Laboratory results reported in PubChem BioAssay AID1224852 (National Center for Advancing Translational Sciences (NCATS), 2016).
The shares of active, inactive and inconclusive entries below differ from those in the screen. Potencies beside an inconclusive call are fits to weak or partial responses and may not hold up. Active and inactive are the calls of the source. The call rests on the fitted dose curve; in most records, active means well fitted curve in the direction sought with a large enough effect (not every such curve was filed as active); inconclusive means small, poorly fitted or top-dose-only effect, or effect the other way, or another doubt; inactive means no such curve, though single readings can be large or run the other way.

Assay: Cell viability assay for measurement of the protective activity of small molecules against cell death caused by Zika virus infection in human neural progenitor cells (hNPCs);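 on protection, negative = more death: 0% = ZIKV-infected cells without compound and 100% = uninfected cells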
Settings: hNPC ZIKV-induced death protection, ATP luminescence, 72 h; protection, negative = more death: at 46.1 µM (top of the series)
Excerpt: National Center for Advancing Translational Sciences [NCATS] Johns Hopkins University School of Medicine Florida State University Assay Overview: Zika virus infection causes cell death in certain cell types including human neural progenitor cells (hNPCs), astrocytes, and astrocytoma cell line (SNB-19). This cell viability assay measures the ATP content (level) in human neural progenitor cells (hNPCs) using a luminescence readout that is proportional to viable cell numbers. Decrease in the luminescence signal after Zika virus infection indicates the cell death caused by Zika virus. Small molecule inhibitors […] the decreased luminescence signal after Zika virus infection, indicating the protective effect of that small molecule on the cell death caused by Zika virus infection. This observed protective effect of small molecules against Zika virus induced cell death may result from inhibition of virus replication or cellular response to the virus infection.
Assay Protocol Summary: The medium for hNPCs consists of DMEM/F12, N2 supplement (ThermoFisher, Cat.# 17502048), NEAA (ThermoFisher, Cat. # 11140050), 2 ug/ml heparin, 2 uM cyclopamine, and B27 (ThermoFisher, Cat. # 17504044). The ATP content assay kit (PerkinElmer, Cat.# 6016731) was used to determine cell viability. The reagent was reconstituted and prepared as described by the manufacturer. Cells were seeded in 384- or 1536-well assay plates and cultured at 37 C with 5% CO2 for 16 to 20 hours. The typical cell seeding density in the 1536-well plate assay is 350 cells/well in 3 ul medium for hNPCs in the tissue cultured treated/PDL coated plates. Compounds were added to cells and incubated for one hour before addition of ZIKV solution to cells (2 FFU/cell). After incubation at 37 C with 5% CO2 for 72 hours, the reagent mixture of the ATP content assay kit was added to each well, followed by incubation at room temperature for 10 minutes. The luminescence intensity of the assay plates was measured using a ViewLux plate reader (PerkinElmer). […] The percentage inhibitions of the decreased cell viability by small molecule inhibitors were then calculated.

SMILES	Potency	protection, negative = more death
C[C@H](NC(=O)C(=O)Nc1ccccc1C(C)(C)C)C(=O)N[C@@H](CC(=O)O)C(=O)COc1c(F)c(F)cc(F)c1F	inconclusive: 5.48 µM [activator, full curve]	
O[C@@H](COc1cccc2ncccc12)CN1CCN(C2c3ccccc3[C@@H]3[C@H](c4ccccc42)C3(F)F)CC1 (stereo not given in full)		inactive: -81.6%
CO[C@H]1C(=O)[C@]2(C)[C@@H](OC)C[C@H]3OC[C@@]3(OC(C)=O)[C@H]2[C@H](OC(=O)c2ccccc2)[C@]2(O)C[C@H](OC(=O)[C@H](O)[C@@H](NC(=O)OC(C)(C)C)c3ccccc3)C(C)=C1C2(C)C		inconclusive: -54.1% [activator]
CN1CCN(c2cc3c(nn2)Oc2ccccc2N3C)CC1		inactive: 8.35% [at 23.8 µM]
O=C(O)c1ccccc1NCCc1ccccc1	inconclusive: 7.74 µM [activator, single point]	
CC=CC[C@@H](C)C(=O)[C@H]1C(=O)N[C@@H](C(C)C)C(=O)N(C)CC(=O)N(C)[C@@H](CC(C)C)C(=O)N[C@@H](C(C)C)C(=O)N(C)[C@@H](CC(C)C)C(=O)N[C@@H](C)C(=O)N[C@H](C)C(=O)N(C)[C@@H](CC(C)C)C(=O)N(C)[C@@H](CC(C)C)C(=O)N(C)[C@@H](C(C)C)C(=O)N1C		inactive: -38.7%
CC[C@]1(O)C[C@H]2CN(CCc3c([nH]c4ccccc34)[C@@](C(=O)OC)(c3cc4c(cc3OC)N(C=O)[C@H]3[C@@](O)(C(=O)OC)[C@H](OC(C)=O)[C@]5(CC)C=CCN6CC[C@]43[C@@H]65)C2)C1		inconclusive: -61.9% [activator]
Clc1ccccc1-c1nc(-c2ccncc2)no1		inactive: -34%
Cc1[nH]c(C=C2C(=O)Nc3ccccc32)c(C)c1CCC(=O)O	inconclusive: 30.8 µM [activator, single point]	
c1ccc(CCNc2nc(-c3ccccc3)cs2)cc1		inactive: -7.96%

Single values from above:
protection, negative = more death with CN1CCN(c2cc3c(nn2)Oc2ccccc2N3C)CC1 reads inactive: 8.35% [at 23.8 µM]
protection, negative = more death with CC=CC[C@@H](C)C(=O)[C@H]1C(=O)N[C@@H](C(C)C)C(=O)N(C)CC(=O)N(C)[C@@H](CC(C)C)C(=O)N[C@@H](C(C)C)C(=O)N(C)[C@@H](CC(C)C)C(=O)N[C@@H](C)C(=O)N[C@H](C)C(=O)N(C)[C@@H](CC(C)C)C(=O)N(C)[C@@H](CC(C)C)C(=O)N(C)[C@@H](C(C)C)C(=O)N1C reads inactive: -38.7%
